Results published in PubChem BioAssay AID256 (DTP/NCI, 2004).
The list is a part of this screen's results and no random one: it gathers tests that were run many times, whatever their T/C, doses with no T/C, and many T/C values between a quarter and a half above the control. Other doses and runs of a compound stand elsewhere. T/C gives the treated animals as a percentage of the vehicle group. Some doses have a count of surviving animals in place of a T/C: the source holds a T/C of zero for them, seemingly a mark for toxic or unscored doses. Some survivor counts are full or nearly so, which does not show that the dose was tolerated: survival well below the control is almost never listed, so the zero probably covers shortened survival too. Survivors were counted at the toxicity check, usually on the fifth day, unless a day is given; later deaths do not show. Schedules are NCI's codes, taken here to give the interval after Q, in days (D) or hours (H), and the number of doses after X. Brackets with × count equal records among those shown. Some structures stand for samples that the source files as different forms (salt, stereo form or complex); doses refer to the form tested. For survival time, this PubChem deposit counts one and a half times the control or more as active, and values a quarter to a half above the control carry no call in these data; other NCI protocols may use other cut-offs. Some entries hold several experiments; the results are listed from low to high. Some T/C values carry the count of animals alive at the toxicity check (mostly the fifth day); without a count, all were alive then.

System: CD2F1 mice, L1210 leukemia ip, survival T/C
Assay: NCI In Vivo Anticancer Drug Screen. Data for tumor model L1210 Leukemia (intraperitoneal) in CD2F1 (CDF1) mice
Details: T/C endpoint: mean survival time, higher T/C = longer survival
Summary of the method: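 Vehicle-treated tumor-bearing mice served as controls (C) for compound-treated mice (T). Reported figure is T divided by C.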

[1] = dose: 100.0 mg/kg/injection, schedule: Q04DX003 (ip), vehicle: saline with Tween-80
[2] = dose: 200.0 mg/kg/injection, schedule: Q04DX003 (ip), vehicle: saline with Tween-80
[3] = dose: 400.0 mg/kg/injection, schedule: Q04DX003 (ip), vehicle: saline with Tween-80
[4] = dose: 25.0 mg/kg/injection, schedule: Q01DX009 (ip), vehicle: saline with Tween-80
[5] = dose: 400.0 mg/kg/injection, schedule: Q01DX009 (ip), vehicle: saline with Tween-80

## CCCCCCCCCCCCCCCCCC(=O)OCC(=O)OCC(=O)[C@]1(O)Cc2c(O)c3c(c(O)c2[C@@H](OC2CC(N)C(O)C(C)O2)C1)C(=O)c1c(OC)cccc1C3=O (some centres undefined)
dose: 0.39 mg/kg/injection, schedule: Q01DX005 (ip), vehicle: other
  T/C: 131 % of control
dose: 0.78 mg/kg/injection, schedule: Q01DX005 (ip), vehicle: other
  T/C: 131 % of control
dose: 1.56 mg/kg/injection, schedule: Q01DX005 (ip), vehicle: other
  T/C: 129 % of control
dose: 1.56 mg/kg/injection, schedule: Q01DX005 (ip), vehicle: water, evaluated on day 30
  T/C: 137 % of control
dose: 1.56 mg/kg/injection, schedule: Q01DX005 (ip), vehicle: water, evaluated on day 45
  T/C: 129 % of control
dose: 3.0 mg/kg/injection, schedule: Q01DX009 (ip), vehicle: saline
  T/C: 126 % of control
dose: 3.13 mg/kg/injection, schedule: Q01DX005 (ip), vehicle: water
  T/C: 141 % of control
dose: 6.0 mg/kg/injection, schedule: Q01DX009 (ip), vehicle: saline
  T/C: 145 % of control
dose: 6.25 mg/kg/injection, schedule: Q01DX005 (ip), vehicle: water
  T/C: 139 % of control
dose: 12.5 mg/kg/injection, schedule: Q01DX005 (ip), vehicle: water
  survivor count: 6 of 6 (2×)

## CC(C)CC(NC(=O)C(N)Cc1ccc(N(CCCl)CCCl)cc1)C(=O)O (centres undefined)
dose: 8.0 mg/kg/injection, schedule: Q04DX003 (ip), vehicle: saline with Tween-80
  T/C: 129 % of control
dose: 128.0 mg/kg/injection, schedule: Q04DX003 (ip), vehicle: saline with Tween-80
  T/C: 132 % of control [9 of 10 alive]

## COC(=O)[C@H]1[C@H]2C[C@@H]3c4[nH]c5cc(OC)ccc5c4CCN3C[C@H]2C[C@@H](OC(=O)/C=C/c2cc(OC)c(OC)c(OC)c2)[C@@H]1OC
[1]
  survivor count: 0 of 6
[2]
  survivor count: 0 of 6
[3]
  survivor count: 0 of 6

## O=C(Nc1cccc2ccccc12)OCCCBr
[4]
  survivor count: 3 of 3

## Cc1cccc(SC(=O)Nc2ccc(Cl)cc2C)c1
dose: 50.0 mg/kg/injection, schedule: Q01DX009 (ip), vehicle: saline with Tween-80
  survivor count: 3 of 3

## CN=NNc1ccccc1
[1]
  T/C: 125 % of control [5 of 6 alive]
dose: 150.0 mg/kg/injection, schedule: Q01DX001 (ip), vehicle: saline
  T/C: 137 % of control
dose: 150.0 mg/kg/injection, schedule: Q04DX003 (ip), vehicle: saline with Tween-80
  T/C: 131 % of control
dose: 300.0 mg/kg/injection, schedule: Q01DX001 (ip), vehicle: saline
  survivor count: 0 of 6

## COc1ccc2c3csc4ccccc4c-3nc2c1
dose: 100.0 mg/kg/injection, schedule: Q04DX003 (ip), vehicle: acetone
  survivor count: 5 of 6
dose: 200.0 mg/kg/injection, schedule: Q04DX003 (ip), vehicle: acetone
  survivor count: 1 of 6
[2]
  survivor count: 3 of 6
dose: 400.0 mg/kg/injection, schedule: Q04DX003 (ip), vehicle: acetone
  survivor count: 0 of 6
[3]
  survivor count: 1 of 6

## CCCCC(CC)COP(=O)(CC(CC)CCCC)OCC(CC)CCCC (centres undefined)
dose: 400.0 mg/kg/injection, schedule: Q04DX003 (ip), vehicle: saline
  survivor count: 6 of 6

## CC(=O)Oc1ccc(Cl)cc1
[5]
  survivor count: 0 of 6

## CC(=O)NC(CCC(=O)C=[N+]=N)C(=O)O (centres undefined)
dose: 0.01 mg/kg/injection, schedule: Q03HX024 (ip), vehicle: saline
  survivor count: 10 of 10
dose: 0.03 mg/kg/injection, schedule: Q03HX024 (ip), vehicle: saline
  survivor count: 10 of 10
dose: 0.06 mg/kg/injection, schedule: Q03HX024 (ip), vehicle: saline
  survivor count: 10 of 10
dose: 0.2 mg/kg/injection, schedule: Q01DX009 (ip), vehicle: water
  T/C: 136 % of control
dose: 0.25 mg/kg/injection, schedule: Q03HX016 (ip), vehicle: saline
  T/C: 130 and 137 % of control
dose: 0.25 mg/kg/injection, schedule: Q03HX024 (ip), vehicle: saline
  T/C: 144 % of control
dose: 0.5 mg/kg/injection, schedule: Q01DX005 (iv), vehicle: saline
  T/C: 125 % of control
dose: 0.5 mg/kg/injection, schedule: Q01DX009 (ip), vehicle: saline
  T/C: 126 and 130 % of control
dose: 0.5 mg/kg/injection, schedule: Q01DX009 (oral), vehicle: saline
  T/C: 137 % of control
dose: 0.5 mg/kg/injection, schedule: Q03HX008 (ip), vehicle: saline
  T/C: 132 % of control
dose: 0.5 mg/kg/injection, schedule: Q03HX016 (ip), vehicle: saline
  T/C: 147 % of control
dose: 0.5 mg/kg/injection, schedule: Q03HX024 (ip), vehicle: saline
  T/C: 144 % of control
dose: 0.5 mg/kg/injection, schedule: Q06HX008 (ip), vehicle: saline
  T/C: 136 % of control
dose: 0.5 mg/kg/injection, schedule: Q06HX012 (ip), vehicle: saline
  T/C: 149 % of control
dose: 0.6 mg/kg/injection, schedule: Q01DX009 (ip), vehicle: water
  T/C: 125 % of control
dose: 1.0 mg/kg/injection, schedule: Q01DX005 (ip), vehicle: saline
  T/C: 130 % of control
dose: 1.0 mg/kg/injection, schedule: Q01DX005 (iv), vehicle: saline
  T/C: 131 and 136 % of control
dose: 1.0 mg/kg/injection, schedule: Q01DX009 (ip), vehicle: saline
  T/C: 133 % of control
dose: 1.0 mg/kg/injection, schedule: Q03HX008 (ip), vehicle: saline
  T/C: 139 % of control
dose: 1.0 mg/kg/injection, schedule: Q06HX008 (ip), vehicle: saline
  T/C: 143 % of control
dose: 2.0 mg/kg/injection, schedule: Q01DX005 (iv), vehicle: saline
  T/C: 139 % of control
dose: 2.0 mg/kg/injection, schedule: Q01DX009 (ip), vehicle: saline
  survivor count: 10 of 10
dose: 2.0 mg/kg/injection, schedule: Q03HX008 (ip), vehicle: saline
  T/C: 136 % of control
dose: 4.0 mg/kg/injection, schedule: Q01DX005 (iv), vehicle: saline
  survivor count: 9 of 10
dose: 4.0 mg/kg/injection, schedule: Q01DX009 (ip), vehicle: saline
  survivor count: 9 of 10
dose: 4.0 mg/kg/injection, schedule: Q04DX003 (ip), vehicle: saline
  T/C: 134 % of control
dose: 8.0 mg/kg/injection, schedule: Q01DX005 (ip), vehicle: saline
  survivor count: 2 of 10
dose: 8.0 mg/kg/injection, schedule: Q01DX009 (ip), vehicle: saline
  survivor count: 8 of 10
dose: 8.0 mg/kg/injection, schedule: Q04DX003 (ip), vehicle: saline
  T/C: 143 % of control
dose: 16.0 mg/kg/injection, schedule: Q01DX001 (ip), vehicle: saline
  T/C: 125 % of control
dose: 16.0 mg/kg/injection, schedule: Q01DX005 (ip), vehicle: saline
  survivor count: 4 of 10
dose: 16.0 mg/kg/injection, schedule: Q08DX002 (ip), vehicle: saline
  T/C: 137 % of control

## CCN(CC)c1nc(N(CC)CC)nc(N(CC)CC)n1
[5]
  survivor count: 10 of 10

## CN(C)C(=S)[S][Sn]([CH3])([CH3])[CH3]
dose: 6.25 mg/kg/injection, schedule: Q01DX009 (ip), vehicle: saline with Tween-80
  survivor count: 0 of 3
dose: 12.5 mg/kg/injection, schedule: Q01DX009 (ip), vehicle: saline with Tween-80
  survivor count: 0 of 3
[4]
  survivor count: 0 of 3

## NC(N)=NC1CCCC1
dose: 100.0 mg/kg/injection, schedule: Q01DX009 (ip), vehicle: saline with Tween-80
  survivor count: 2 of 6

## O=C(OCC#CCOC(=O)c1c(Cl)ccc(Cl)c1Cl)c1c(Cl)ccc(Cl)c1Cl
dose: 400.0 mg/kg/injection, schedule: Q04DX002 (ip), vehicle: saline with Tween-80
  survivor count: 3 of 3

## NCC(=O)NC1(C(=O)O)CCCC1
dose: 250.0 mg/kg/injection, schedule: Q04DX003 (ip), vehicle: saline
  T/C: 125 % of control
dose: 500.0 mg/kg/injection, schedule: Q01DX001 (ip), vehicle: saline
  T/C: 136 % of control

## CCCCC#CC(=O)CCCCC
dose: 200.0 mg/kg/injection, schedule: Q01DX009 (ip), vehicle: saline with Tween-80
  survivor count: 0 of 3
